# The other results are listed elsewhere or left out.
# Protein sequences, listed by entry. Tags and fused reporters are not part of them. Lines headed by an entry give the natural chain unless they say otherwise; changes in a name come on top.
# UniProt Q9Y6M1: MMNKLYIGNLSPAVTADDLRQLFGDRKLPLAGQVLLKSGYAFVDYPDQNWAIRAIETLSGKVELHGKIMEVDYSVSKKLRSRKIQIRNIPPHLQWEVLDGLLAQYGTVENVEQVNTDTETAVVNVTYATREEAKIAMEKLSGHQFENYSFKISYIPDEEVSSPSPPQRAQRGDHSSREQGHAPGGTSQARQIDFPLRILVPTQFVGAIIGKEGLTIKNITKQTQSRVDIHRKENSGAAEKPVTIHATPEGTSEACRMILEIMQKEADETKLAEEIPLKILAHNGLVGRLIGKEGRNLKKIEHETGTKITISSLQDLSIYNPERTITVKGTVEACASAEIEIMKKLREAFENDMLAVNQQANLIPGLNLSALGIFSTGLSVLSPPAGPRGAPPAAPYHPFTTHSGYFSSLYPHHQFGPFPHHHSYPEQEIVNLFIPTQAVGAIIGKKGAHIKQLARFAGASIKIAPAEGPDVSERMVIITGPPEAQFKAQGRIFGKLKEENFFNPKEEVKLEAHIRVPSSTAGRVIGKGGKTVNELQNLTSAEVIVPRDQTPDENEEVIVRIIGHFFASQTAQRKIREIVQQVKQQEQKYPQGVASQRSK
# UniProt P17066, whole entry, looked up: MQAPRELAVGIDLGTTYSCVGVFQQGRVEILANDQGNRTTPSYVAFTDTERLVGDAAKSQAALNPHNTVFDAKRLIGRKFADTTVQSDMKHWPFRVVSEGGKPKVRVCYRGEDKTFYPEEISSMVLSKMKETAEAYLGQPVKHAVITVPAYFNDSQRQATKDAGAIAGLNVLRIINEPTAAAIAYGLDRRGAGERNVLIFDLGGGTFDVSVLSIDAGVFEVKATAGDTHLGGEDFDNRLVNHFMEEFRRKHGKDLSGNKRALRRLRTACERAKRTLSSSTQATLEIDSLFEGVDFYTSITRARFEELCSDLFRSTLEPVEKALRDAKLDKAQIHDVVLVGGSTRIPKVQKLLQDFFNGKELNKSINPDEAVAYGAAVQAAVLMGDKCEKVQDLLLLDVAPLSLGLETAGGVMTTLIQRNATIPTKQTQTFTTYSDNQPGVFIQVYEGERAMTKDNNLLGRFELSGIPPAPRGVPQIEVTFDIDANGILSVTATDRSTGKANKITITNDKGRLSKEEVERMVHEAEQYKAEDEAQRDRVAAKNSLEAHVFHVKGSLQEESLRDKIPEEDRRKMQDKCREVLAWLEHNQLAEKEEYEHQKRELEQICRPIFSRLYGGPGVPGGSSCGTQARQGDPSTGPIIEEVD
# UniProt P04792, whole entry, looked up: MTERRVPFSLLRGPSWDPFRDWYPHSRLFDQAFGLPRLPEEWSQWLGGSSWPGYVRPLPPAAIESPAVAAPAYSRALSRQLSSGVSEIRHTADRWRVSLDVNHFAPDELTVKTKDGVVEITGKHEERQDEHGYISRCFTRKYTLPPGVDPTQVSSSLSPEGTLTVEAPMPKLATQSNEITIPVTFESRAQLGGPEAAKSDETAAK
# UniProt Q9Y5U9: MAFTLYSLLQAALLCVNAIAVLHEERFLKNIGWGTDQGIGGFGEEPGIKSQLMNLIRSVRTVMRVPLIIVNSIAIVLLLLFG
# UniProt O00425, whole entry, looked up: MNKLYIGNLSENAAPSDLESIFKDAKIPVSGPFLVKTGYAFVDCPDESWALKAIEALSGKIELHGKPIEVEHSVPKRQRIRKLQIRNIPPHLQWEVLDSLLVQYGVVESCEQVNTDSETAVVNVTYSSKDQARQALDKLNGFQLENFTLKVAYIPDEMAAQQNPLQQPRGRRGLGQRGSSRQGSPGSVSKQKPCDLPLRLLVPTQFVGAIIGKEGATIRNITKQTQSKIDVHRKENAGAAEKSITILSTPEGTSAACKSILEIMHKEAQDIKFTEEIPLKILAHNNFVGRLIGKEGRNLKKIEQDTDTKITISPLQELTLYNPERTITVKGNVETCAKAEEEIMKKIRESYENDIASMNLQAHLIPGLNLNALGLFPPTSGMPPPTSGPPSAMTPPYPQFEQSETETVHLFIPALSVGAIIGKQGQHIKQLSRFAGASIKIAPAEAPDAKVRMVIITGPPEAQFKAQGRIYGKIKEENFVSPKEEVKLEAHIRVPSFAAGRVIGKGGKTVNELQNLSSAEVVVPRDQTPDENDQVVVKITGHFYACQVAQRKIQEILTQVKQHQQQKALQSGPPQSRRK
# UniProt Q12906, whole entry, looked up: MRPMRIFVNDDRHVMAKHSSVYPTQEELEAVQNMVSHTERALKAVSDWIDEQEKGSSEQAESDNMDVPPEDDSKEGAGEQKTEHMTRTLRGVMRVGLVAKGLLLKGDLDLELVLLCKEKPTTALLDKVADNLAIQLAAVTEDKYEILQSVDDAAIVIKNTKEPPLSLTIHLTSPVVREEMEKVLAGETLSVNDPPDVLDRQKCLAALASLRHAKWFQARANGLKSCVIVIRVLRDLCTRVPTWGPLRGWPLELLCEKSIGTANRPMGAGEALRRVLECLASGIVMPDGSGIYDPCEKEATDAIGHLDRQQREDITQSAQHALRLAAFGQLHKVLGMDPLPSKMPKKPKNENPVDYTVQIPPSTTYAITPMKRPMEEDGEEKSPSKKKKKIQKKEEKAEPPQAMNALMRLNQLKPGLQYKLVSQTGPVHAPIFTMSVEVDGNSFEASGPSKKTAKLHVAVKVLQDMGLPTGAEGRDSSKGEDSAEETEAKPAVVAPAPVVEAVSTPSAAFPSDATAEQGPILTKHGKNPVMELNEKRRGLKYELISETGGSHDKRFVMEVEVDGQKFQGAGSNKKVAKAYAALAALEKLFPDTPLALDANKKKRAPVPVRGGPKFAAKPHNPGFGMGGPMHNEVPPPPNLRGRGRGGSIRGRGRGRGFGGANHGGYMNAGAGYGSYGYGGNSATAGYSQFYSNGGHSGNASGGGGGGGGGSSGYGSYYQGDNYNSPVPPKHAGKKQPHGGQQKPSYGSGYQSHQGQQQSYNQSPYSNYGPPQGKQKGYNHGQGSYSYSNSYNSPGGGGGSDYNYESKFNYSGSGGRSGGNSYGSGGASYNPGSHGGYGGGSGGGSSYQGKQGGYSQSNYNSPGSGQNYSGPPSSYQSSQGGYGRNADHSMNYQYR
# UniProt P01876, whole entry, looked up: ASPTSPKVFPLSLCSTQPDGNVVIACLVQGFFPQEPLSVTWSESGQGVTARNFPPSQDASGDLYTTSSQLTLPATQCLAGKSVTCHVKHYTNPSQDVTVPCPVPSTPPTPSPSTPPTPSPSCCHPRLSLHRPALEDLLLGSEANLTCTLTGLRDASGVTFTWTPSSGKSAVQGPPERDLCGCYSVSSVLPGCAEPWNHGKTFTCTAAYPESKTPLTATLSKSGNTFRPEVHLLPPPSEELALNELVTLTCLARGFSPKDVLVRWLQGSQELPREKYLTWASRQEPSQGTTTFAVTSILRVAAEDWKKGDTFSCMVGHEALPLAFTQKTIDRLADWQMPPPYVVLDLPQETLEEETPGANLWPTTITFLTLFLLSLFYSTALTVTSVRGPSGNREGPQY
# UniProt P32019: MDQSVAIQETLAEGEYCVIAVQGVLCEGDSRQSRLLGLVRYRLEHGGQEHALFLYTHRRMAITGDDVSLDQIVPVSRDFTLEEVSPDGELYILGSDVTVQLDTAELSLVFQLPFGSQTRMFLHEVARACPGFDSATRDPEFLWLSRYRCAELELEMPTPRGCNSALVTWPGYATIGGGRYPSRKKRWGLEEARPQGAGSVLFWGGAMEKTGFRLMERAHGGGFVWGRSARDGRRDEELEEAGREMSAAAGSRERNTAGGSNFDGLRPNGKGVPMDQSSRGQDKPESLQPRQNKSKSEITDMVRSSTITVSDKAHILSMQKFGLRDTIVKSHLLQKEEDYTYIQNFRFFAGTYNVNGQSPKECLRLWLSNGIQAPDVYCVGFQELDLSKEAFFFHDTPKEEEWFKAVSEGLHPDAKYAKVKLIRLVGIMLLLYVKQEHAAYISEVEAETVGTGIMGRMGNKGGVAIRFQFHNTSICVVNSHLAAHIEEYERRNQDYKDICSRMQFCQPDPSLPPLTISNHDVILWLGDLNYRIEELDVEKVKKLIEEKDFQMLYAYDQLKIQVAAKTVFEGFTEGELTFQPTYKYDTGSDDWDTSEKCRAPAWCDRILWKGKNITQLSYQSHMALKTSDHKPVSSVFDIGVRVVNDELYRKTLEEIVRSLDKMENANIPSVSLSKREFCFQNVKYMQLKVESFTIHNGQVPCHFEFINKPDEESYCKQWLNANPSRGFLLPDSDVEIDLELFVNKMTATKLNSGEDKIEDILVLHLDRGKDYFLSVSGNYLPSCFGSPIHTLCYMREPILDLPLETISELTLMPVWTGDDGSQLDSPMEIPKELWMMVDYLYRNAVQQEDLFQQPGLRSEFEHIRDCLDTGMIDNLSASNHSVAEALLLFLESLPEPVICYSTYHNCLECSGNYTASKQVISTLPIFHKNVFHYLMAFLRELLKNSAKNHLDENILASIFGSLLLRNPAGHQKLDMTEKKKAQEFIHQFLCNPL
# UniProt Q12905: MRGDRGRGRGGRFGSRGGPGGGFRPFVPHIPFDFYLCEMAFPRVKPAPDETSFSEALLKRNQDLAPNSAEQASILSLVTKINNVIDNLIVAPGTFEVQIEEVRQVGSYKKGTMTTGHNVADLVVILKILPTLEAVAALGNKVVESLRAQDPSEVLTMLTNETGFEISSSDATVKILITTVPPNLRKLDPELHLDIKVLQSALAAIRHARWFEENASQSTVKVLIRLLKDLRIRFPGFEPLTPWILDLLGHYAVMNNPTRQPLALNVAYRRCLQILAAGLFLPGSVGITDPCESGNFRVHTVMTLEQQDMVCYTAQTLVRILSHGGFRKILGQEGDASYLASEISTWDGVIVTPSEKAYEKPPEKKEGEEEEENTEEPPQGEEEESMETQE
# UniProt Q969P0: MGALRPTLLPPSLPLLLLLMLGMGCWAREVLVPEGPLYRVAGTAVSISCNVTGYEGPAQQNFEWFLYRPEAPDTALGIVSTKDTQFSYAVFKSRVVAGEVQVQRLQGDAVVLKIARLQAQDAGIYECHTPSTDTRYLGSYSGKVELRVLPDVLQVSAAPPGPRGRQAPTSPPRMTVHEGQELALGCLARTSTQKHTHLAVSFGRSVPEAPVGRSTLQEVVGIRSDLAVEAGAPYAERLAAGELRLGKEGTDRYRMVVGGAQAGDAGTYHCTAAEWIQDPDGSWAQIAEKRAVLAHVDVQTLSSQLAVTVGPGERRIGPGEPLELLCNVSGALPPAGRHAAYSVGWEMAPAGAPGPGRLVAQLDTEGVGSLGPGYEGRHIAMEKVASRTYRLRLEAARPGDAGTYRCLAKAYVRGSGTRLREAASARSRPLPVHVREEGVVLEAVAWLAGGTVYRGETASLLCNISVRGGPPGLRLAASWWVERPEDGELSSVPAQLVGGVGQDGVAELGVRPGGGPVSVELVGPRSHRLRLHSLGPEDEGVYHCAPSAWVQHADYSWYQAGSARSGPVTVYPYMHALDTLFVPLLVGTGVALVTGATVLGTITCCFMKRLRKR
# UniProt Q96FT9: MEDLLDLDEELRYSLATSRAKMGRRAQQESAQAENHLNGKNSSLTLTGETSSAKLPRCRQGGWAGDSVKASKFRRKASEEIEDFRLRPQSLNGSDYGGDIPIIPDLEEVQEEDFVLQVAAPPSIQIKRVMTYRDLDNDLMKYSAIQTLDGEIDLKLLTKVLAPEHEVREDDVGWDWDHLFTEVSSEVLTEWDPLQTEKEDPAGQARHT
# UniProt Q9NVR2, whole entry, looked up: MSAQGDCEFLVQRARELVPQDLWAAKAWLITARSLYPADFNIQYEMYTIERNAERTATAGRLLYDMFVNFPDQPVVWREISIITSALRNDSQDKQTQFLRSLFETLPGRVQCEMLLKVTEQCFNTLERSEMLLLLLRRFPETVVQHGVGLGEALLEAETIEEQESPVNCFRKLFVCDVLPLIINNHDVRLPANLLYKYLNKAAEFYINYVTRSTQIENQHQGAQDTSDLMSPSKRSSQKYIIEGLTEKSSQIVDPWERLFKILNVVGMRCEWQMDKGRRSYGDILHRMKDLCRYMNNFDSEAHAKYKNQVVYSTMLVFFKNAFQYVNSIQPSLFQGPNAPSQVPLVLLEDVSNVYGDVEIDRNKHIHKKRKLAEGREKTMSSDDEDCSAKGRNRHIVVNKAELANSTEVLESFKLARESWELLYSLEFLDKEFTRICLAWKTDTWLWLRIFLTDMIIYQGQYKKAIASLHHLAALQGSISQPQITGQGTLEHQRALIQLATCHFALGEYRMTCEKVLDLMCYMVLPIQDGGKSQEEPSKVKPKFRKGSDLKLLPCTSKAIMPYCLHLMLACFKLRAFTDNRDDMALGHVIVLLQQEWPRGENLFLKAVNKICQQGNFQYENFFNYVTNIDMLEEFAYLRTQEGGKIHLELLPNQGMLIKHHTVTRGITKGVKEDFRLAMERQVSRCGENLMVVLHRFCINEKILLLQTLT
# UniProt O60725, whole entry, looked up: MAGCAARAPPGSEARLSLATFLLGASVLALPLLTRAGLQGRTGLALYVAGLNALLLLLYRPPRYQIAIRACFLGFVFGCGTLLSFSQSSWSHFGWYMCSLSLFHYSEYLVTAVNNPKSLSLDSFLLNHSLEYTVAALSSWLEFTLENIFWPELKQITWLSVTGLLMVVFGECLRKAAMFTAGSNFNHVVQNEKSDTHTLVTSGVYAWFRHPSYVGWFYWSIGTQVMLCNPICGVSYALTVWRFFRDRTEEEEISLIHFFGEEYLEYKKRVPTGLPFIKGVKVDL
# Compound: Cc1sc2c(c1C)C(c1ccc(Cl)cc1)=N[C@@H](CC(=O)OC(C)(C)C)c1nnc(C)n1-2
# Assay: log2 fold change, soluble protein after heating vs DMSO (PISA); higher = thermal stabilisation; K562 lysate, 10 uM; active = over 0.2 and 3.5 SD of the protein, either way, in both replicates (recomputed)
# Outline: (§1)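 To prepare the extract, K562 pellets were dounce-homogenised in PBS pH 7.4 with 1 mM MgCl2, giving crude material at 1 mg/mL protein. This was treated with 10 μM compound for 30 min, then heated in aliquots for 3 min over 48°C-58°C before pooling and addition of NP-40 to 0.5% at 4°C. Centrifugation at 21,000xg for 90 min left soluble protein in the supernatant, which TMTpro 16plex LC-MS/MS quantified with equalised channel sums. Results are log-two fold changes in thermal stability compared with solvent controls, from duplicates.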
row,Target,log2 fold change
1,IKBKG isoform 2 (UniProt Q9Y6K9),inactive: -0.004
2,IGF2BP2 (UniProt Q9Y6M1),inactive: 0.022
3,HSPA6 (UniProt P17066),inactive: -0.233
4,HSPB1 (UniProt P04792),inactive: -0.017
5,IMPAD1 (UniProt Q9NX62),inactive: -0.026
6,INPP5F (UniProt Q9Y2H2),inactive: -0.144
7,IKBIP (UniProt Q70UQ0),inactive: -0.026
8,IER3IP1 (UniProt Q9Y5U9),inactive: -0.179
9,ICAM5 (UniProt Q9UMF0),inactive: 0.078
10,IARS (UniProt P41252),inactive: 0.066
11,IK (UniProt Q13123),inactive: -0.006
12,HSPE1 (UniProt P61604),inactive: 0.007
13,IMPDH2 (UniProt P12268),inactive: 0.045
14,IGF2BP3 (UniProt O00425),inactive: 0.035
15,ILF3 isoform 7 (UniProt Q12906),inactive: -0.02
16,IGHA1 (UniProt P01876),inactive: -0.259
17,IFT20 isoform 2 (UniProt Q8IY31),inactive: -0.046
18,INPP5B (UniProt P32019),inactive: -0.032
19,ILF2 (UniProt Q12905),inactive: 0.002
20,IGSF8 (UniProt Q969P0),inactive: 0.01
21,IFT43 (UniProt Q96FT9),inactive: -0.051
22,INTS10 (UniProt Q9NVR2),inactive: -0.077
23,ICMT (UniProt O60725),inactive: -0.166
24,ILK (UniProt Q13418),inactive: 0.027
25,HSPD1 (UniProt P10809),inactive: 0.002
26,IARS2 (UniProt Q9NSE4),inactive: 0.028

# Compound: c1ccc([C@@H]2C[C@H]2NC2CCNCC2)cc1
# Assay: as above
# Outline: as §1
row,Target,log2 fold change
1,IKBKG isoform 2 (UniProt Q9Y6K9),inactive: -0.062
2,IGF2BP2 (UniProt Q9Y6M1),inactive: 0.008
3,HSPA6 (UniProt P17066),inactive: -0.066
4,HSPB1 (UniProt P04792),inactive: 0.028
5,IMPAD1 (UniProt Q9NX62),inactive: -0.008
6,INPP5F (UniProt Q9Y2H2),inactive: -0.24
7,IKBIP (UniProt Q70UQ0),inactive: -0.019
8,IER3IP1 (UniProt Q9Y5U9),inactive: 0.039
9,ICAM5 (UniProt Q9UMF0),inactive: -0.068
10,IARS (UniProt P41252),inactive: 0.047
11,IK (UniProt Q13123),inactive: -0.03
12,HSPE1 (UniProt P61604),inactive: -0.021
13,IMPDH2 (UniProt P12268),inactive: 0.017
14,IGF2BP3 (UniProt O00425),inactive: -0.002
15,ILF3 isoform 7 (UniProt Q12906),inactive: 0.002
16,IGHA1 (UniProt P01876),inactive: -0.215
17,IFT20 isoform 2 (UniProt Q8IY31),inactive: -0.117
18,INPP5B (UniProt P32019),inactive: -0.015
19,ILF2 (UniProt Q12905),inactive: -0.012
20,IGSF8 (UniProt Q969P0),inactive: -0.058
21,INTS10 (UniProt Q9NVR2),inactive: -0.003
22,ILK (UniProt Q13418),inactive: -0.002
23,HSPD1 (UniProt P10809),inactive: -0.006
24,IARS2 (UniProt Q9NSE4),inactive: 0.119

# Source: the supplement of paper PMC10849652
